The assay addresses T1, nYFP-PYE (Arabidopsis) (UniProt Q9SN74).
T1 sequence: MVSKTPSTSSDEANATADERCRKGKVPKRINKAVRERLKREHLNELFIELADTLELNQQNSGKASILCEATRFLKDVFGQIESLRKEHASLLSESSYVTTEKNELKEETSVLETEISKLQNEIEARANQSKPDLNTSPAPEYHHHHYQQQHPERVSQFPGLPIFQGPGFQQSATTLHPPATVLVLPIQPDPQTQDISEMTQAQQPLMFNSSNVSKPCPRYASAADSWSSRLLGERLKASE
Briefly: split reporter; BiFC 2in1 vector system (pBiFC-2in1-NN, N-terminal nYFP and cYFP fusions) in transiently transformed tobacco leaf epidermis cells; mRFP as transformation control.

No constants are given. Whether binding was seen depends on the method and setting. Binding seen in cells or lysates may run through a third protein. Some results given as binding are weak or reduced against the parent protein; the word gives no strength. Sequences can lack the tags named with a protein.

Data on 2 molecules can be found in paper PMC11020826.

B1: cYFP-bHLH39 (protein, UniProt Q9M1K0 1-258)
chain: MCALVPPLFPNFGWPSTGEYDSYYLAGDILNNGGFLDFPVPEETYGAVTAVTQHQNSFGVSVSSEGNEIDNNPVVVKKLNHNASERDRRRKINSLFSSLRSCLPASGQSKKLSIPATVSRSLKYIPELQEQVKKLIKKKEELLVQISGQRNTECYVKQPPKAVANYISTVSATRLGDNEVMVQISSSKIHNFSISNVLSGLEEDRFVLVDMSSSRSQGERLFYTLHLQVEKIENYKLNCEELSQRMLYLYEECGNSYI
Turning to B1, the binding entry is given as “no binding”.
Next, WVPHEGTGIYYPKGQEK [cYFP-OLV-TGIYY]: “binds”.
